Record: PubChem BioAssay AID504808 (Drosophila RNAi Screening Center, 2011)
The screen tested about 21,000 reagents; below is an unselected part of those that have a named target and a result. Over the whole deposit, 18 (0.084%) got an active call. 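Raw counts without plate normalisation, one of two replicates; the ratio scores behind the calls were not deposited.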 Names joined by + are all predicted targets of the reagent. The record does not give: the amount of reagent, the time to read-out.

Assay: 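Fly genes required to hold E2F transcription in check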 (primary screen)
System: Drosophila S2 cells
Reagents: long dsRNA against Drosophila genes
Detection: 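Dual luciferase plate measurements; E2F-specific signal taken as firefly over Renilla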
Scale: E2F firefly: higher = more E2F reporter activity; Renilla normaliser: higher = more normaliser reporter signal
Rule for the call: 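Called active if the normalised E2F reporter went up by over 50%; the cutoff is arbitrary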

target gene	dsRNA	E2F firefly, rep 1	Renilla normaliser, rep 1	call
CHOp24	DRSC18310	1969	976	inactive
CG9451	DRSC11074	1.31e5	6589	inactive
CG7142	DRSC16204	1.34e5	7180	inactive
Arf6	DRSC05921	1.03e5	4345	inactive
CG8204	DRSC07106	84945	3972	inactive
frj	DRSC03250	71027	3430	inactive
CG30479	DRSC06735	99747	4296	inactive
RSG7	DRSC20274	1.67e5	6469	inactive
CG12885	DRSC14572	1.16e5	7661	inactive
CG15373	DRSC19663	1.68e5	6867	inactive
crc	DRSC03513	1.02e5	4350	inactive
nkt	DRSC10144	1.08e5	6211	inactive
CG9308	DRSC04539	1.08e5	4332	inactive
dgo	DRSC06134	2739	189	inactive
CG12535	DRSC17838	1.06e5	5069	inactive
gzl	DRSC12517	74012	3672	inactive
CR18275	DRSC18151	53824	4437	inactive
Gr58c	DRSC04136	1.04e5	3907	inactive
Nsun2	DRSC18662	1883	804	inactive
CG13716	DRSC08325	93753	4021	inactive
Boot	DRSC06412	1.47e5	5484	inactive
Tango14	DRSC00667	1.58e5	5986	inactive
FMRFaR	DRSC08555	1.03e5	4233	inactive
CG10298	DRSC12522	1.36e5	6093	inactive
wds	DRSC18852	1.90e5	7922	inactive
Chchd2	DRSC19931	2.48e5	8069	inactive
tomboy20	DRSC14913	1.50e5	6496	inactive
Hsp27	DRSC11190	73139	3629	inactive
RpS26	DRSC03420	60293	115	inactive
ph-d	DRSC18819	65298	5199	inactive
Glys	DRSC16130	77947	3375	inactive
CR42745 (retired record)	DRSC13756	89784	2182	inactive
CG31787	DRSC01632	1.32e5	4710	inactive
CG15082	DRSC06513	1.44e5	4842	inactive
Gasp	DRSC12349	63412	3185	inactive
Tgi	DRSC09793	1.26e5	7311	inactive
Tgi	DRSC09794	1.36e5	6865	inactive

Laid out differently: results already given
target gene | dsRNA | E2F firefly, rep 1 | Renilla normaliser, rep 1 | call
CHOp24 | DRSC18310 | 1969 | 976 | inactive
CG9451 | DRSC11074 | 1.31e5 | 6589 | inactive
CG7142 | DRSC16204 | 1.34e5 | 7180 | inactive
Arf6 | DRSC05921 | 1.03e5 | 4345 | inactive
CG8204 | DRSC07106 | 84945 | 3972 | inactive
frj | DRSC03250 | 71027 | 3430 | inactive
CG30479 | DRSC06735 | 99747 | 4296 | inactive
RSG7 | DRSC20274 | 1.67e5 | 6469 | inactive
CG12885 | DRSC14572 | 1.16e5 | 7661 | inactive
CG15373 | DRSC19663 | 1.68e5 | 6867 | inactive
crc | DRSC03513 | 1.02e5 | 4350 | inactive
nkt | DRSC10144 | 1.08e5 | 6211 | inactive

Continued:
target gene	dsRNA	E2F firefly, rep 1	Renilla normaliser, rep 1	call
Kap3	DRSC19426	8062	676	inactive
CG34289	DRSC13625	78564	2160	inactive
Hmgs	DRSC06866	1.35e5	4750	inactive
CG9521	DRSC20196	2.29e5	6383	inactive
tx (retired record)	DRSC16931	1663	788	inactive
Fbxl4	DRSC19805	7318	704	inactive
CG8677	DRSC03107	83412	3528	inactive
CG33251 (retired record) + CG9915	DRSC20217	1.37e5	5643	inactive
Fnta	DRSC00557	93981	3238	inactive
kune	DRSC04860	1.15e5	4286	inactive
CG3589	DRSC04392	86288	3004	inactive
wam	DRSC15171	99176	6515	inactive
APC10	DRSC06071	1.32e5	4718	inactive
CG1523	DRSC15033	2159	876	inactive
CG4045	DRSC18518	1833	1020	inactive
Hrb27C	DRSC03347	99673	3767	inactive
Actn	DRSC17724	1683	872	inactive
CG17118	DRSC02579	1.32e5	4863	inactive
Golgin104	DRSC10459	74062	3157	inactive
CG2444	DRSC19846	83597	5946	inactive
CG11263	DRSC09832	1.33e5	8251	inactive
CG13907	DRSC08377	81297	3474	inactive
CG5445	DRSC19943	1.68e5	5135	inactive
CG13339	DRSC06373	91607	4560	inactive
CG5112	DRSC15718	1887	1404	inactive
CG14929 + CG4970	DRSC02411	1.53e5	5429	inactive
CG14929 + CG4970	DRSC02796	1.44e5	4714	inactive
amrt	DRSC19378	1.97e5	6737	inactive
PpD3	DRSC16796	1.51e5	7343	inactive
pHCl-2	DRSC14306	1.13e5	5582	inactive
CG33494	DRSC13715	85556	2831	inactive
CG31735	DRSC01518	1.36e5	5629	inactive
zf30C	DRSC03641	1.07e5	4150	inactive
lama	DRSC11361	68544	3333	inactive
CG30127 (retired record)	DRSC05785	1.56e5	5165	inactive
CG30127 (retired record)	DRSC05786	1.35e5	5201	inactive
CG5070	DRSC19932	1.49e5	7141	inactive
roq	DRSC10227	71040	3587	inactive
CG13896	DRSC08366	92376	3979	inactive
CG32727	DRSC17519	77597	2636	inactive
CG14325	DRSC14804	95265	5556	inactive
CG15642	DRSC19678	1.34e5	6257	inactive
CG14785	DRSC18604	1813	1052	inactive
Pvf1	DRSC20024	1.46e5	4891	inactive
CG3225	DRSC00578	1.00e5	4864	inactive
CG11099	DRSC06034	1.55e5	4852	inactive
CG2930	DRSC17730	1931	968	inactive
